Results: the supplement of paper PMC10849652
The list shows a part of the results.

Protein sequences, listed by entry. Tags and fused reporters are not part of them. Lines headed by an entry give the natural chain unless they say otherwise; changes in a name come on top.
UniProt P98194: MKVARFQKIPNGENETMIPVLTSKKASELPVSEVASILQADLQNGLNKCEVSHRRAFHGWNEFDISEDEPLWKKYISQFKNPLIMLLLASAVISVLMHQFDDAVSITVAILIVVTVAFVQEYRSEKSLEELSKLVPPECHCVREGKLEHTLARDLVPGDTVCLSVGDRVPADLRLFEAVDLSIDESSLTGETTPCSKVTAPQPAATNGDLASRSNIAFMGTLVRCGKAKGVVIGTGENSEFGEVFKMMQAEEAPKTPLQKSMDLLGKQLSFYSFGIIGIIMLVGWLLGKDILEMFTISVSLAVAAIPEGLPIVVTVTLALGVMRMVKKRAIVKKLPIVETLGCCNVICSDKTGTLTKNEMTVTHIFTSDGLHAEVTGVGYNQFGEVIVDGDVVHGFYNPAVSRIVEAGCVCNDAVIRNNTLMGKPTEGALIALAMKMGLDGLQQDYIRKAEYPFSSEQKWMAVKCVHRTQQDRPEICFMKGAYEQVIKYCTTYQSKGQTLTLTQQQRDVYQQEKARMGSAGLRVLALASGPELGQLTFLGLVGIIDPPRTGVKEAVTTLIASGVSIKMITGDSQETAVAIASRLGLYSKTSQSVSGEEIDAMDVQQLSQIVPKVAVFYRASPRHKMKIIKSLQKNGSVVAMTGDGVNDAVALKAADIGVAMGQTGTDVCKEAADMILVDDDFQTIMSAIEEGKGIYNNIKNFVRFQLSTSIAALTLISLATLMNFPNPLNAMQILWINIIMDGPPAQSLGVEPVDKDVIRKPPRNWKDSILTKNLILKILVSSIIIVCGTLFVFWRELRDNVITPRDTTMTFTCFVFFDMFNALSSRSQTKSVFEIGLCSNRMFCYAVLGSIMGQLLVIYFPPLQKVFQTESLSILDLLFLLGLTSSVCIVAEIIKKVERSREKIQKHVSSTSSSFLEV
UniProt P14415, whole entry, looked up: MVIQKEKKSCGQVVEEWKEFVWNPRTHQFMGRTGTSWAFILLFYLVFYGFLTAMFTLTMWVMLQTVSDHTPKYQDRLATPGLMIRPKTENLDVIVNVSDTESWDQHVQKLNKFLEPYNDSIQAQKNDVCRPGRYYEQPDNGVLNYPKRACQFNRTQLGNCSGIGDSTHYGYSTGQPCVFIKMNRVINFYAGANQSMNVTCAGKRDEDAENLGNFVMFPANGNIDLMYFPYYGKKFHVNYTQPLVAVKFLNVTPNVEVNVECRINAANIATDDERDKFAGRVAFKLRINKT
UniProt Q8N5M1: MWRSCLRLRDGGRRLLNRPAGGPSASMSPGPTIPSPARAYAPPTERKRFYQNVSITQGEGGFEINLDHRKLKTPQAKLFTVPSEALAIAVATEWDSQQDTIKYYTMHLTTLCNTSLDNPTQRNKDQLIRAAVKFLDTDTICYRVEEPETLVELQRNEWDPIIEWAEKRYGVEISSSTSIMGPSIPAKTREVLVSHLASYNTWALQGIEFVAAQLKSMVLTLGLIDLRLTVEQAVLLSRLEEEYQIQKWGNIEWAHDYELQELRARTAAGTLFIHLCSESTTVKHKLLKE
UniProt O75143: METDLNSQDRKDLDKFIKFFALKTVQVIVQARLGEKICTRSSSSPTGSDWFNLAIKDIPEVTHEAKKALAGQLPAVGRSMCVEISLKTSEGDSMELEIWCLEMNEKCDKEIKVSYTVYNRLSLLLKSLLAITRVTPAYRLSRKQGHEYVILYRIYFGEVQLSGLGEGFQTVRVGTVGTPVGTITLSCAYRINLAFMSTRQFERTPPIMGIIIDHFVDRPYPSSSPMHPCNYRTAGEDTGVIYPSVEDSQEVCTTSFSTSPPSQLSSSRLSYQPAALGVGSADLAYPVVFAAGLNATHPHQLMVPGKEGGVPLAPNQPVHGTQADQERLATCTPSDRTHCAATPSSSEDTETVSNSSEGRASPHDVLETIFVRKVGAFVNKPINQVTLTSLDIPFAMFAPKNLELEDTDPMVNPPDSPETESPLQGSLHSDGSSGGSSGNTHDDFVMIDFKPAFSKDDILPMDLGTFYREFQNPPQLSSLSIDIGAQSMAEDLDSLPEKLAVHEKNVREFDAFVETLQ
UniProt Q06055: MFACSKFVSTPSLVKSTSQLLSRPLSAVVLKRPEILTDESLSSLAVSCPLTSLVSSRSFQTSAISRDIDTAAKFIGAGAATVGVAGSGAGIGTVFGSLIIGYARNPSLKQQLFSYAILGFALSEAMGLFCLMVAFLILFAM
UniProt Q9BPX5, whole entry, looked up: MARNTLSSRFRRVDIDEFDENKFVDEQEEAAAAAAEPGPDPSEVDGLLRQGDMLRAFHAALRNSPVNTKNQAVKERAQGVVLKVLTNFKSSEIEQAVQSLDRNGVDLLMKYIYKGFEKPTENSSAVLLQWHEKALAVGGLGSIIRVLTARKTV
UniProt Q9NVJ2: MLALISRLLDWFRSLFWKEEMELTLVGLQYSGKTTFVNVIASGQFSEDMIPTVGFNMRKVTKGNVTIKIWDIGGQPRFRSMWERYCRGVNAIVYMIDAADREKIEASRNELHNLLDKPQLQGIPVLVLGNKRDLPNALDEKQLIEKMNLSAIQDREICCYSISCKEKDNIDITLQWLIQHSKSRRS
UniProt Q9NXU5: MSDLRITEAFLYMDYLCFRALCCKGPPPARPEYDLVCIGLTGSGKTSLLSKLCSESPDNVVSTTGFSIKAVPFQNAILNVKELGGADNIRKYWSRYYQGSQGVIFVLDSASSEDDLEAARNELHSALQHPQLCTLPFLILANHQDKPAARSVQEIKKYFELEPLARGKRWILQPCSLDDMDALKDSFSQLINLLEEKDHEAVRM
UniProt Q676U5: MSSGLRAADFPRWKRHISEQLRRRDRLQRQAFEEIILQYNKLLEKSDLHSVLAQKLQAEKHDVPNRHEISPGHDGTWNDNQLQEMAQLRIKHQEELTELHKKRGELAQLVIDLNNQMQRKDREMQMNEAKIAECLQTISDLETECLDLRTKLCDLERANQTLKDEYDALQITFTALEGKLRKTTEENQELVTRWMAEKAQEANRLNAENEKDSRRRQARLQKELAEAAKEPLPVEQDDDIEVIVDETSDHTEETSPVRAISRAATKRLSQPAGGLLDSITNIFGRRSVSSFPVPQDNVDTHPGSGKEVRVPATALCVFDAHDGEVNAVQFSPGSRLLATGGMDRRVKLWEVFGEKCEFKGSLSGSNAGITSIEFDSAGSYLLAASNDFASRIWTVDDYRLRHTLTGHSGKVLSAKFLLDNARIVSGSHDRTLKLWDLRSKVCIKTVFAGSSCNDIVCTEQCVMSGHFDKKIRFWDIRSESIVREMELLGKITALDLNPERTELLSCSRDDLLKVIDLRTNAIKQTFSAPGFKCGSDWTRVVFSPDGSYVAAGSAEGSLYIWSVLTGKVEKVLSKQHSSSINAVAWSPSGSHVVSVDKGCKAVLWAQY
UniProt P18859: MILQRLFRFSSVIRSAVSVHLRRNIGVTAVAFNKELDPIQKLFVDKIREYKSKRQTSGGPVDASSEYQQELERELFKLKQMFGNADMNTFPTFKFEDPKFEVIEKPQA
UniProt Q2TAZ0: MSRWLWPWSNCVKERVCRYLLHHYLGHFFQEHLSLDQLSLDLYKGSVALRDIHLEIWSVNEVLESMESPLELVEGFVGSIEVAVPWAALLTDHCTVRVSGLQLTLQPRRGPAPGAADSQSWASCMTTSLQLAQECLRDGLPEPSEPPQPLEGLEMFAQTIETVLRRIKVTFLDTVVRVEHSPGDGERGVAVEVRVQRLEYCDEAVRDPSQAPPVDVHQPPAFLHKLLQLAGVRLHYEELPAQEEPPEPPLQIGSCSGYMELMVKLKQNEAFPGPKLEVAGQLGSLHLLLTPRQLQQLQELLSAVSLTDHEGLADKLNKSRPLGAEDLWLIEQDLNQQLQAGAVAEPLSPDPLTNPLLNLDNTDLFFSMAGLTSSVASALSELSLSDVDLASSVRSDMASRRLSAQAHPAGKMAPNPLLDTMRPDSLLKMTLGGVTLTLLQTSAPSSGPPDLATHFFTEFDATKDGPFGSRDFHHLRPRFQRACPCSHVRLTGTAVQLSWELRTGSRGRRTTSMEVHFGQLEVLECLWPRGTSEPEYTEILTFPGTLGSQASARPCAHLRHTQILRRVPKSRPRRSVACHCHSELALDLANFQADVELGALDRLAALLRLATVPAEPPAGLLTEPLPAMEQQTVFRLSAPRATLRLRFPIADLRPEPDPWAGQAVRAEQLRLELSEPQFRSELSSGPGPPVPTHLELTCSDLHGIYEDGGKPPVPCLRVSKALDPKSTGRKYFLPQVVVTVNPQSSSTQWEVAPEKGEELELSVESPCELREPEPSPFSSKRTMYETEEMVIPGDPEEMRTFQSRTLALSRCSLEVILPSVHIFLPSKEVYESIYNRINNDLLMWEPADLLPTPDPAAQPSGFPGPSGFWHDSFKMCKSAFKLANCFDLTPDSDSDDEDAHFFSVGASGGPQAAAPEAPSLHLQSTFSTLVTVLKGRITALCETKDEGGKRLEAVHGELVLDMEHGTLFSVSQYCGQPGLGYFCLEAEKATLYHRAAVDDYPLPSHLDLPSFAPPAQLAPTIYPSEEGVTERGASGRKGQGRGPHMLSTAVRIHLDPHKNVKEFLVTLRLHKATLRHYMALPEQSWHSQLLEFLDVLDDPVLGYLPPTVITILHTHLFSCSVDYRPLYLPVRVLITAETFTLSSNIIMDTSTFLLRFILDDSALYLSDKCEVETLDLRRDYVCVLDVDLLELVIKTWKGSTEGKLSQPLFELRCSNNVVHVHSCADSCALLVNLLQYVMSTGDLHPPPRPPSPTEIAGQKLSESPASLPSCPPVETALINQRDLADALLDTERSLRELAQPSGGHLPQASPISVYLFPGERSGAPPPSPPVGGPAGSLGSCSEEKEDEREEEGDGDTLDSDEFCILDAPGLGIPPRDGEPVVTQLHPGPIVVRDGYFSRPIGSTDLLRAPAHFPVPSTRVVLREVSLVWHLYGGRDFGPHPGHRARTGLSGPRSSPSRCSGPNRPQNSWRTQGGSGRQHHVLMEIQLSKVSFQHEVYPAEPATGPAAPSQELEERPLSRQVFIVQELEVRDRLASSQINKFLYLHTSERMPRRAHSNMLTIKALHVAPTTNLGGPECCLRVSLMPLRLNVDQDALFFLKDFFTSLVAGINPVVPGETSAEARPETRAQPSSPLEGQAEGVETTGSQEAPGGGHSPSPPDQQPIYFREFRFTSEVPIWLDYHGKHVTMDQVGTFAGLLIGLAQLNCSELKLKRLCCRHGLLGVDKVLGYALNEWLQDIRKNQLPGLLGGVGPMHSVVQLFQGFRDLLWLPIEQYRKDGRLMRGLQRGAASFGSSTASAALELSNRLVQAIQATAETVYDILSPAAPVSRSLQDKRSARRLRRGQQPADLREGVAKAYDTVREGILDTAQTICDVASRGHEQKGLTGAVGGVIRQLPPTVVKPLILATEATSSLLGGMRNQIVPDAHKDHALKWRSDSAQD
UniProt Q96IX5: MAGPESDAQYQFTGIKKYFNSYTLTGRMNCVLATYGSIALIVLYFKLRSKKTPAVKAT
UniProt P61421, whole entry, looked up: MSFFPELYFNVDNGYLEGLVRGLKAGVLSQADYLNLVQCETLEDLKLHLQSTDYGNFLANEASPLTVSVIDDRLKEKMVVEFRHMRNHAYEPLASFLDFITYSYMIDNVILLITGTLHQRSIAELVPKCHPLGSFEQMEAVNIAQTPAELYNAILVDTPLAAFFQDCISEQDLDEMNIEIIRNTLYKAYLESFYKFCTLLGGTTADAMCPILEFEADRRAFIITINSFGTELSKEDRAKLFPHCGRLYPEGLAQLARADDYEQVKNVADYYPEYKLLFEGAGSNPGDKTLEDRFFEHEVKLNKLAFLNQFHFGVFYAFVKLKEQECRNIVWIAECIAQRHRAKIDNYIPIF
UniProt Q3SXY8: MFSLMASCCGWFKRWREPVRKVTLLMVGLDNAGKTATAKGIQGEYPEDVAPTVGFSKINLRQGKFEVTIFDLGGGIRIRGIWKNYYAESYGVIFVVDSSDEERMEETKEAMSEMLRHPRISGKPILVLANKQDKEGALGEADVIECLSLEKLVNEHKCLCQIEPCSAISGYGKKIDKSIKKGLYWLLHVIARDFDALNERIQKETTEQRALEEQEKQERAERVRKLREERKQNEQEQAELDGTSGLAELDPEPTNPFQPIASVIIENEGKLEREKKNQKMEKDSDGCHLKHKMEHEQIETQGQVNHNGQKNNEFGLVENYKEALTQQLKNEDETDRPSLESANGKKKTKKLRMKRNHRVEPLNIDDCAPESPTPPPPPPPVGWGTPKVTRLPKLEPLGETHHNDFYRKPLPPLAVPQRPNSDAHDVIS
UniProt P32121, whole entry, looked up: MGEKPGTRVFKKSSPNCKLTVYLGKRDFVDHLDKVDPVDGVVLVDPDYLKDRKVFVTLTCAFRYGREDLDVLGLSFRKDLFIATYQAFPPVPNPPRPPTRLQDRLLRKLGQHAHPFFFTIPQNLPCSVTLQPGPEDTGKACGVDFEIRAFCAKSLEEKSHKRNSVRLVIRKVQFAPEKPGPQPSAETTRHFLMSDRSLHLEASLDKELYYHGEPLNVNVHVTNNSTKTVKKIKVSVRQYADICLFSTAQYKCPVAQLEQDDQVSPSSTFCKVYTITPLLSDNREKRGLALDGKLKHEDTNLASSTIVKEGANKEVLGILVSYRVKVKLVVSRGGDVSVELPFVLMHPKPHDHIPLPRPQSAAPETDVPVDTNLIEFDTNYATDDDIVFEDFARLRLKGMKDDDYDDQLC

These targets were tested with c1cn2cc(-c3ccc4cn[nH]c4c3)nc(Nc3ccc(N4CCOCC4)cc3)c2n1 [entospletinib] (assay: log2 fold change, soluble protein after heating vs DMSO (PISA); higher = thermal stabilisation; K562 cells, 10 uM, 30 min; active = over 0.2 and 3.5 SD of the protein, either way, in both replicates (recomputed)).
Summary of the method: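 K562 cells (2×10^6 cells/mL) were treated with 10 μM compound for 30 min, and aliquots were heated for 3 min over 48°C-58°C. Pooled aliquots were extracted in PBS with 0.5% NP-40 at 4°C, and the supernatant after 21,000xg for 90 min was measured by TMTpro 16plex LC-MS/MS with channel sums equalised. Reported thermal stability, relative to control samples and from duplicates, is a log2 fold change.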

log2 fold change, inactive:
ATP2C1 isoform 7 (UniProt P98194) -0.006
ATP6V1A (UniProt P38606) -0.019
ASXL1 (UniProt Q8IXJ9) 0.041
ATP2B4 (UniProt P23634) 0.019
ATP1B2 (UniProt P14415) -0.042
ATPAF2 (UniProt Q8N5M1) 0.001
ATP6V1D (UniProt Q9Y5K8) -0.031
ATG13 isoform 5 (UniProt O75143) 0.029
ASPSCR1 isoform 2 (UniProt Q9BZE9) 0.005
ATP5MC2 isoform 2 (UniProt Q06055) -0.084
ARPC5L (UniProt Q9BPX5) -0.053
ATG14 (UniProt Q6ZNE5) -0.082
ATP11B (UniProt Q9Y2G3) 0.019
ARL8B (UniProt Q9NVJ2) 0.006
ATM (UniProt Q13315) 0.06
ARL15 (UniProt Q9NXU5) -0.048
ATP1A3 isoform 3 (UniProt P13637) 0.008
ATG16L1 (UniProt Q676U5) -0.051
ATP5PF isoform 2 (UniProt P18859) 0.104
ARMT1 (UniProt Q9H993) 0.056
ATP11C (UniProt Q8NB49) -0.028
ARL5A (UniProt Q9Y689) 0.071
ATP5MF (UniProt P56134) 0.047
ASCC1 isoform 2 (UniProt Q8N9N2) -0.049
ATG2A isoform 3 (UniProt Q2TAZ0) -0.04
ATP5PB (UniProt P24539) 0.008
ARPC5 (UniProt O15511) -0.009
ATP5MD (UniProt Q96IX5) 0.228
ATP2B1 isoform 1 (UniProt P20020) -0.013
ATP6V0D1 (UniProt P61421) 0.087
ARL13B (UniProt Q3SXY8) 0.009
ARRB2 isoform 4 (UniProt P32121) -0.083

An excerpt of the results above, as a working copy:
log2 fold change, inactive:
ARL15 (UniProt Q9NXU5) -0.048
ATP1A3 isoform 3 (UniProt P13637) 0.008
ATG16L1 (UniProt Q676U5) -0.051
ATP5PF isoform 2 (UniProt P18859) 0.104
ARMT1 (UniProt Q9H993) 0.056
ATP11C (UniProt Q8NB49) -0.028
